## Primary screen of a compound library

Chains of the proteins cited; added tags and fusions are not shown.
UniProt E9BF75, entry or part of it: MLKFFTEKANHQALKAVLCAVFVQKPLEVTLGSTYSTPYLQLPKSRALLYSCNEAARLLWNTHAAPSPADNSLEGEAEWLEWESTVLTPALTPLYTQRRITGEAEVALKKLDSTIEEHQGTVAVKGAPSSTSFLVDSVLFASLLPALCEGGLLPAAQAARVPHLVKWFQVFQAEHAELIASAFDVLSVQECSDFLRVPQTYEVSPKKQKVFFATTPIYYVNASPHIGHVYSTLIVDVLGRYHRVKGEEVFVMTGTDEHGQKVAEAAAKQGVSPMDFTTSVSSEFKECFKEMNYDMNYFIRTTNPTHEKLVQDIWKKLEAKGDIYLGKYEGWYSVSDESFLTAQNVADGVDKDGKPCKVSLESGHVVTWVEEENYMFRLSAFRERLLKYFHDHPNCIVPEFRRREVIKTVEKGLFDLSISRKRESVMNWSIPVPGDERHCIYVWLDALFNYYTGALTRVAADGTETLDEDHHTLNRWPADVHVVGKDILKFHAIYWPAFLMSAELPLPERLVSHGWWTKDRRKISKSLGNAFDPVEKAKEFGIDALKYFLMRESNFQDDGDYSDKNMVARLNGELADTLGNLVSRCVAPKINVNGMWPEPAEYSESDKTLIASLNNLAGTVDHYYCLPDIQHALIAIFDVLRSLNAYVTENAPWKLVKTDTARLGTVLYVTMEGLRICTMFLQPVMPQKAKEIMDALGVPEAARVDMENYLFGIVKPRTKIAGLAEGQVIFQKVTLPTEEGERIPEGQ

Source: ChEMBL document CHEMBL3988442, “University of Dundee, Small-Polar-MMV Screening Library” (2021).

All values are in %.
The controls that fix the scale are not given in the record; negative values are as filed.
Compounds were drawn at random from those tested, without regard to their results.
A dash means the value is not listed here; it may have been measured.

LdMetRS: 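Methionyl-tRNA synthetase (putative), Leishmania donovani (UniProt E9BF75). Primary screen of methionyl-tRNA synthetase; the read-out is not stated. The test concentration is not given. The values are filed as inhibition. About 68,000 compounds were tested under these conditions; 0.035% (about 24) showed 50% or more at least once.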
Mtb heat-shock: 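Assay on Mycobacterium tuberculosis, filed only as a heat shock assay from Cornell; the read-out is not stated. The concentration is filed as 10 mM, unlikely as a test dose, so the dose is not known. Direction is inferred from retests: higher values go with stronger inhibition. Size under these conditions: about 69,000 compounds, about 930 of them at 50% or above in at least one test.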

For CC(=O)N1CC[C@H]2CC(=O)N(Cc3ccc4c(c3)OCO4)CC[C@H]2C1 the result was LdMetRS: 14.29%.
For Cc1cnc(C)c(N2CCC(Cc3ccccc3Cl)(C(=O)O)CC2)n1 the result was LdMetRS: 9.253%; Mtb heat-shock: 20.16%.
For CCSc1nsc(NC(=O)COc2ccc3c(c2)OCO3)n1 the result was LdMetRS: 11.23%; Mtb heat-shock: 20.7%.
For CCN(Cc1ccncc1)c1cc(C2CCCNC2)nc(C)n1 (stereo not shown) the result was LdMetRS: 15.89%; Mtb heat-shock: -13.1%.
For [H][C@]12CN(CC3CC3)C(=O)[C@@]1([H])CN(c1ncccn1)C2 the result was Mtb heat-shock: 10.75%.
For Cc1noc(CN2CCN(C(=O)c3ccccn3)CC2)n1 the result was LdMetRS: 7.904%; Mtb heat-shock: 21.02%.
For Cc1cc(C)n(CC2CCCCN2CC(=O)Nc2c(C)n[nH]c2C)n1 (stereo not shown) the result was LdMetRS: 17.83%; Mtb heat-shock: -3.254%.
For COCC1CN(S(C)(=O)=O)Cc2ncn(CC3CC3)c21 (stereo not shown) the result was LdMetRS: 11.52%; Mtb heat-shock: -13.11%.
For [H][C@]12CCCCN1CCC[C@H]2CN(C)Cc1cnn(C(C)C)c1 the result was Mtb heat-shock: -12.05%.
For COc1ccc(C(=O)N2CCCS2(=O)=O)cc1OC the result was LdMetRS: 18.21%; Mtb heat-shock: -3.19%.
For Cc1ccc(CN2CCc3nnc(COCCN(C)C)n3CC2)o1.O=C(O)C(F)(F)F.O=C(O)C(F)(F)F the result was Mtb heat-shock: -11.99%.
For CC(C)CN1CCC2(CCN(Cc3ccc(F)cc3)CC2)C1=O the result was LdMetRS: 10.64%.
For COc1c(CNCc2ccc(Cn3ccnc3)cc2)c(C)nn1C the result was LdMetRS: 25.56%; Mtb heat-shock: -11.07%.
For O=C1OC2(CCN(C3CCCOC3)CC2)CN1CCc1ccccc1 (stereo not shown) the result was LdMetRS: 11.02%; Mtb heat-shock: 4.978%.
For CC(C)(C)CNS(=O)(=O)C1CS(=O)(=O)c2ccccc21 (stereo not shown) the result was LdMetRS: 10.99%; Mtb heat-shock: -2.133%.
For O=C1CC(c2cccnc2)c2c(c(C(=O)O)cn2-c2cccc(F)c2)N1 (stereo not shown) the result was LdMetRS: 11.63%; Mtb heat-shock: 24.45%.
For CN(C)C(=O)CN1CCCC1c1nccnc1Nc1ccccn1 (stereo not shown) the result was LdMetRS: 15.1%; Mtb heat-shock: -13%.
For Cc1cc(O)nc(C2CN(CCO)CCO2)n1 (stereo not shown) the result was LdMetRS: 3.871%; Mtb heat-shock: -30.46%.
For CC1CCc2c(c3ccccc3[nH]c2=O)O1 (stereo not shown) the result was LdMetRS: 6.842%; Mtb heat-shock: 17.61%.
For Cn1nc(-c2cccs2)cc1[C@H]1CN2CC[C@H]1C[C@@H]2CNS(C)(=O)=O the result was LdMetRS: 5.263%.
For CCS(=O)(=O)c1ccccc1N1CCC(NC(C)=O)CC1 the result was LdMetRS: 9.841%; Mtb heat-shock: 9.271%.
For COc1ccccc1CCNC(=O)N(C)C(C)CS(C)(=O)=O (stereo not shown) the result was LdMetRS: 12.54%; Mtb heat-shock: -23.39%.
For CC(C)n1[nH]c(=O)c2c1NC(=O)CSC2C1CCCCC1 (stereo not shown) the result was LdMetRS: 13.04%; Mtb heat-shock: -7.609%.
For N#Cc1cccnc1NCCNC(=O)NCCSC(F)(F)F the result was LdMetRS: 6.593%; Mtb heat-shock: -15.46%.
For Cc1cc(NC(=O)NCC(O)c2ccc(Cl)cc2Cl)n(C)n1 (stereo not shown) the result was LdMetRS: 10.2%; Mtb heat-shock: -2.306%.
For [H][C@@]12C[C@H](C(=O)N(C)C)[C@@]([H])(CN(C(=O)NCC3CCCCC3)C1)O2 the result was Mtb heat-shock: -3.011%.
For Cc1cc(Br)oc1C(=O)N1CCCN(CC(N)=O)CC1 the result was LdMetRS: 15.72%; Mtb heat-shock: 2.712%.
For O=C([C@H]1C[C@H]2OCC[C@H]2N(Cc2cccnc2)C1)N1CCCCO1 the result was LdMetRS: 7.463%.
For COc1ccc(S(=O)(=O)C(C)C(=O)NCCOc2cccc(C)c2)cc1 (stereo not shown) the result was LdMetRS: 13.19%; Mtb heat-shock: -18.84%.
For [H][C@@]12CNCC[C@]1(O)CCN(Cc1c(OCCC)ccc3ccccc13)C2 the result was Mtb heat-shock: -9.959%.
For O=C(O)C(F)(F)F.[H][C@@]12CCN(c3cc(OC)ncn3)[C@]1([H])CC[C@H](C(=O)NC1CCCC1)O2 the result was Mtb heat-shock: -0.9791%.
For CC(Cn1cccn1)NCc1csc(-c2ccsc2)n1 (stereo not shown) the result was LdMetRS: 21.49%; Mtb heat-shock: 22.32%.

Once more, the final 2:

| SMILES | LdMetRS | Mtb heat-shock |
|---|---|---|
| `O=C(O)C(F)(F)F.[H][C@@]12CCN(c3cc(OC)ncn3)[C@]1([H])CC[C@H](C(=O)NC1CCCC1)O2` | - | -0.9791 |
| `CC(Cn1cccn1)NCc1csc(-c2ccsc2)n1` (stereo not shown) | 21.49 | 22.32 |